Laboratory results as given in PubChem BioAssay AID256 (DTP/NCI, 2004).
The list is a part of this screen's results and no random one: it is rich in T/C values a quarter to a half above the control, in often repeated tests (any T/C) and in doses without a T/C. Other doses and runs of a compound stand elsewhere. T/C gives the treated animals as a percentage of the vehicle group. Some entries give survivors of the animals treated and no T/C: the source holds a T/C of zero for them, seemingly a mark for toxic or unscored doses. Some doses without a T/C left all or most animals alive at the check, yet need not have been tolerated: survival well below the control is almost never listed, so the zero probably covers shortened survival too. Survivors were counted at the toxicity check, usually on the fifth day, unless a day is given; later deaths do not show. Schedules are NCI's codes, taken here to give the interval after Q, in days (D) or hours (H), and the number of doses after X. Some entries hold several experiments; their values stand side by side, smallest first. Where survival is the endpoint, the PubChem record calls one and a half times the control and up active, and a quarter to a half above the control has no call in these data; cut-offs in other NCI protocols can differ. Some T/C values carry the count of animals alive at the toxicity check (mostly the fifth day); without a count, all were alive then.

System: CD2F1 mice, L1210 leukemia ip, survival T/C
Assay: NCI In Vivo Anticancer Drug Screen. Data for tumor model L1210 Leukemia (intraperitoneal) in CD2F1 (CDF1) mice
Details: higher T/C = longer survival
In short: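 Transplantable tumor in mice; compound-treated vs vehicle-treated groups. Read-out = treated/control ratio of the measured endpoint.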

[1] = T/C endpoint: mean survival time, dose: 200.0 mg/kg/injection, schedule: Q04DX003 (ip), vehicle: saline
[2] = T/C endpoint: mean survival time, dose: 400.0 mg/kg/injection, schedule: Q04DX003 (ip), vehicle: saline
[3] = T/C endpoint: mean survival time, dose: 400.0 mg/kg/injection, schedule: Q04DX003 (ip), vehicle: saline with Tween-80
[4] = T/C endpoint: mean survival time, dose: 400.0 mg/kg/injection, schedule: Q01DX009 (ip), vehicle: saline with Tween-80
[5] = T/C endpoint: mean survival time, dose: 400.0 mg/kg/injection, schedule: Q01DX001 (ip), vehicle: saline

With `O=c1[nH]cnc2n[nH]nc12` the T/C (T/C endpoint: mean survival time, dose: 12.5 mg/kg/injection, schedule: Q01DX009 (ip), vehicle: Klucel (hydroxypropylcellulose) (HPC)) was 125 % of control, the T/C (T/C endpoint: mean survival time, dose: 25.0 mg/kg/injection, schedule: Q01DX009 (ip), vehicle: Klucel (hydroxypropylcellulose) (HPC)) was 128 % of control and the T/C (T/C endpoint: mean survival time, dose: 50.0 mg/kg/injection, schedule: Q01DX009 (ip), vehicle: Klucel (hydroxypropylcellulose) (HPC)) was 130 [5 of 6 alive] and 133 % of control. The T/C (T/C endpoint: mean survival time, dose: 100.0 mg/kg/injection, schedule: Q01DX009 (ip), vehicle: Klucel (hydroxypropylcellulose) (HPC)) was 133 and 145 % of control, the T/C (T/C endpoint: mean survival time, dose: 200.0 mg/kg/injection, schedule: Q01DX009 (ip), vehicle: Klucel (hydroxypropylcellulose) (HPC)) was 136 and 145 % of control and the T/C (T/C endpoint: mean survival time, dose: 400.0 mg/kg/injection, schedule: Q01DX009 (ip), vehicle: Klucel (hydroxypropylcellulose) (HPC)) was 146 and 148 % of control.

With `CC(=O)OC1COC(n2c(=S)n(-c3ccccc3)c(=N)c3ccccc32)C(OC(C)=O)C1OC(C)=O` (stereo not given) the survivor count (T/C endpoint: mean survival time, dose: 100.0 mg/kg/injection, schedule: Q01DX005 (ip), vehicle: distilled water + Tween-80) was 6 of 6.

With `c1cc2c(cc1CC1CCNC1)OCO2` (stereo not given) the survivor count (T/C endpoint: mean survival time, dose: 100.0 mg/kg/injection, schedule: Q01DX001 (ip), vehicle: saline sonified) was 0 of 6, the survivor count (T/C endpoint: mean survival time, dose: 200.0 mg/kg/injection, schedule: Q01DX001 (ip), vehicle: saline sonified) was 0 of 6 and the survivor count (T/C endpoint: mean survival time, dose: 400.0 mg/kg/injection, schedule: Q01DX001 (ip), vehicle: saline sonified) was 0 of 6.

For `Cc1cc(NCCCCCCNc2cc(C)nc3cc(N(C)C)ccc23)c2ccc(N(C)C)cc2n1`, the T/C (T/C endpoint: median survival time, dose: 3.12 mg/kg/injection, schedule: Q01DX009 (ip), vehicle: distilled water + Tween-80 + alcohol) was 132 % of control, the T/C (T/C endpoint: median survival time, dose: 6.25 mg/kg/injection, schedule: Q01DX009 (ip), vehicle: distilled water + Tween-80 + alcohol) was 137 and 138 % of control and the T/C (T/C endpoint: median survival time, dose: 12.5 mg/kg/injection, schedule: Q01DX009 (ip), vehicle: distilled water + Tween-80 + alcohol) was 141 and 146 % of control. The survivor count (T/C endpoint: median survival time, dose: 50.0 mg/kg/injection, schedule: Q01DX009 (ip), vehicle: distilled water + Tween-80 + alcohol) was 0 of 6 and 5 of 6 and the survivor count (T/C endpoint: median survival time, dose: 100.0 mg/kg/injection, schedule: Q01DX009 (ip), vehicle: distilled water + Tween-80 + alcohol) was 0 of 6.

`Cl/C=C\C[N+]12CN3CN(CN(C3)C1)C2` was tested, and the survivor count [1] was 2 of 6 and the survivor count [2] was 0 of 6.

With `CN(C)CCCN=c1c2ccccc2n(C)c2[nH]c(=O)n(C)c(=O)c12` the T/C (T/C endpoint: median survival time, dose: 30.0 mg/kg/injection, schedule: Q01DX005 (ip), vehicle: saline) was 125 % of control, the survivor count (T/C endpoint: median survival time, dose: 83.33 mg/kg/injection, schedule: Q01DX005 (ip), vehicle: saline) was 5 of 6 and the survivor count (T/C endpoint: median survival time, dose: 240.0 mg/kg/injection, schedule: Q01DX005 (ip), vehicle: saline) was 0 of 6.

With `CC#CS(=O)(=O)C(C)(C)C` the survivor count [3] was 5 of 6.

With `Nc1nc(N)c2nc(CNc3ccc(C(=O)NC(CCC(=O)NC(CCC(=O)O)C(=O)O)C(=O)O)cc3)cnc2n1` (stereo not given) the survivor count (T/C endpoint: mean survival time, dose: 1.7 mg/kg/injection, schedule: Q01DX009 (ip), vehicle: sodium bicarbonate) was 5 of 6, the survivor count (T/C endpoint: mean survival time, dose: 2.6 mg/kg/injection, schedule: Q01DX009 (ip), vehicle: sodium bicarbonate) was 5 of 6 and the survivor count (T/C endpoint: mean survival time, dose: 4.0 mg/kg/injection, schedule: Q01DX009 (ip), vehicle: sodium bicarbonate) was 6 of 6. For the same compound, the survivor count (T/C endpoint: mean survival time, dose: 6.0 mg/kg/injection, schedule: Q01DX009 (ip), vehicle: sodium bicarbonate) was 5 of 6.

`NC(=O)COc1ccc(Cl)cc1Cl` was tested, and the survivor count [4] was 0 of 6.

For `CCCCC(CC)C(=O)[O][Pb]([CH3])([CH3])[CH3]` (stereo not given), the survivor count (T/C endpoint: mean survival time, dose: 20.0 mg/kg/injection, schedule: Q04DX003 (ip), vehicle: saline with Tween-80) was 3 of 6.

`Nc1nc(-c2cccc([N+](=O)[O-])c2)c(N=Nc2ccccc2[N+](=O)[O-])s1` was tested, and the survivor count (T/C endpoint: mean survival time, dose: 200.0 mg/kg/injection, schedule: Q01DX001 (ip), vehicle: saline with Tween-80) was 6 of 6.

With `COc1cccc(NC(=S)/C(=C(\[O-])c2ccc([N+](=O)[O-])cc2)[n+]2ccc(C(C)C)cc2)c1` the survivor count [4] was 1 of 6.

For `Cc1nc(N)[nH]c(=O)c1CCS`, the survivor count [5] was 3 of 6.

For `COc1ccc2ccccc2c1-c1c(O)ccc2ccccc12`, the survivor count (T/C endpoint: mean survival time, dose: 100.0 mg/kg/injection, schedule: Q01DX009 (ip), vehicle: other) was 5 of 6 and the survivor count (T/C endpoint: mean survival time, dose: 200.0 mg/kg/injection, schedule: Q01DX009 (ip), vehicle: other) was 6 of 6.

With `NC1=NC(c2ccccc2)N(c2ccc(Cl)cc2)C(N)=N1` (stereo not given) the survivor count (T/C endpoint: mean survival time, dose: 400.0 mg/kg/injection, schedule: Q01DX001 (ip), vehicle: saline with Tween-80) was 2 of 6.

`O=C(Nc1ccc2c(c1)OCO2)O/N=C1\C(=O)Nc2ccccc21` was tested, and the survivor count [3] was 0 of 6.

In the case of `Cc1ncc(C[P+](c2ccccc2)(c2ccccc2)c2ccccc2)c2c1OC(C)(C)OC2`, the survivor count (T/C endpoint: mean survival time, dose: 300.0 mg/kg/injection, schedule: Q01DX001 (ip), vehicle: saline) was 0 of 6.

In the case of `Cc1ccc(NCC(=O)O)c([N+](=O)[O-])c1`, the survivor count [3] was 6 of 6.

`Cc1ccc(C)c(C(=O)c2ccccc2C(N)=O)c1` was tested, and the survivor count (T/C endpoint: mean survival time, dose: 100.0 mg/kg/injection, schedule: Q04DX003 (ip), vehicle: saline) was 6 of 6, the survivor count [1] was 6 of 6 and the survivor count [2] was 6 of 6.

With `O=NN(CCOS(=O)(=O)c1ccc(Br)cc1)C(=O)NC1CCCCC1` the survivor count (T/C endpoint: mean survival time, dose: 400.0 mg/kg/injection, schedule: Q01DX001 (ip), vehicle: other) was 0 of 6.

`OC12C3CC4C5C3C3(Cl)C(Cl)(Cl)C5(Cl)C(Cl)(C41)C23Cl` (stereo not given) was tested, and the survivor count (T/C endpoint: mean survival time, dose: 9.5 mg/kg/injection, schedule: Q01DX001 (ip), vehicle: other) was 2 of 6, the survivor count (T/C endpoint: mean survival time, dose: 19.0 mg/kg/injection, schedule: Q01DX001 (ip), vehicle: other) was 0 of 6 and the survivor count (T/C endpoint: mean survival time, dose: 38.0 mg/kg/injection, schedule: Q01DX001 (ip), vehicle: other) was 0 of 6. For the same compound, the survivor count (T/C endpoint: mean survival time, dose: 75.0 mg/kg/injection, schedule: Q01DX001 (ip), vehicle: other) was 0 of 6, the survivor count (T/C endpoint: mean survival time, dose: 150.0 mg/kg/injection, schedule: Q01DX001 (ip), vehicle: other) was 0 of 6 and the survivor count (T/C endpoint: mean survival time, dose: 300.0 mg/kg/injection, schedule: Q01DX001 (ip), vehicle: other) was 0 of 6.

For `CSc1ncnc2c1c(C#N)cn2C1OC(CO)C(O)C1O` (stereo not given), the T/C (T/C endpoint: mean survival time, dose: 11.0 mg/kg/injection, schedule: Q01DX009 (ip), vehicle: saline) was 136 % of control, the T/C (T/C endpoint: mean survival time, dose: 19.0 mg/kg/injection, schedule: Q01DX009 (ip), vehicle: saline) was 146 % of control and the T/C (T/C endpoint: mean survival time, dose: 100.0 mg/kg/injection, schedule: Q01DX001 (ip), vehicle: saline) was 127 % of control. The T/C (T/C endpoint: mean survival time, dose: 200.0 mg/kg/injection, schedule: Q01DX001 (ip), vehicle: saline) was 141 % of control and the survivor count [5] was 2 of 6.

For `NC(=O)C#CC(N)=O`, the survivor count (T/C endpoint: mean survival time, dose: 6.0 mg/kg/injection, schedule: Q01DX009 (ip), vehicle: saline) was 2 of 6 and the survivor count (T/C endpoint: mean survival time, dose: 12.0 mg/kg/injection, schedule: Q01DX009 (ip), vehicle: saline) was 0 of 6.

With `O=C1OC(=O)C2C3C=CC(C3)C12` (stereo not given) the survivor count (T/C endpoint: mean survival time, dose: 100.0 mg/kg/injection, schedule: Q04DX003 (ip), vehicle: saline with Tween-80) was 5 of 6, the survivor count (T/C endpoint: mean survival time, dose: 200.0 mg/kg/injection, schedule: Q04DX003 (ip), vehicle: saline with Tween-80) was 1 of 6 and the survivor count [3] was 0 of 6.

For `C[CH2][Sn]1([CH2]C)[O]C2C(CO)OC(n3cnc4c(=O)[nH]c(N)nc43)C2[O]1` (stereo not given), the survivor count (T/C endpoint: mean survival time, dose: 25.0 mg/kg/injection, schedule: Q01DX005 (ip), vehicle: other) was 0 of 6, the survivor count (T/C endpoint: mean survival time, dose: 50.0 mg/kg/injection, schedule: Q01DX005 (ip), vehicle: other) was 0 of 6 and the survivor count (T/C endpoint: mean survival time, dose: 100.0 mg/kg/injection, schedule: Q01DX005 (ip), vehicle: other) was 0 of 6. For the same compound, the survivor count (T/C endpoint: mean survival time, dose: 200.0 mg/kg/injection, schedule: Q01DX005 (ip), vehicle: other) was 0 of 6.
